PubChem BioAssay AID743454, Peter MacCallum Cancer Centre | 2014
Aim: 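Search for knock-downs that restore vorinostat killing in resistant colon cancer cells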 (primary screen). Cells: human HCT116-VR colon cancer cells, selected for vorinostat resistance. Reagents: siRNA pool against human genes, 40 nM siRNA pool. Timing: vorinostat for 24 h, read-out about 72 h after transfection. Conditions: vorinostat at 2.5 µM final. Read-out: 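Two measures, CellTiter-Fluor viability and luminescent caspase 3/7 activity, each as fold change against same-plate mock wells, mean of duplicates, then screen-wide robust z-score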. Reading the numbers: viability robust z-score: higher = more viable cells than screen typical; caspase robust z-score: higher = more caspase 3/7 activity than screen typical. Rule for the call: 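Hits are knock-downs in viability class RV1/RV2 or caspase class CA1/CA2, excluding ones that killed cells in the no-drug cell-count arm; hits then retested with single siRNAs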.
Here is a random part of about 18,000 deposited reagents. 450 of them (2.5%) count as active. 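Single biological run; no consistent viability z cut-off exists, so the class columns, not z-scores, define the calls.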 Entries without a mark were called inactive.

After knock-down of ABHD16A (abhydrolase domain containing 16A, phospholipase), the screen gave viability hit class no change; caspase hit class no change; viability robust z-score 0.26; caspase robust z-score 0.56. TSPAN18 (tetraspanin 18) scored viability hit class no change; caspase hit class no change; viability robust z-score 0.08; caspase robust z-score 0.8. After knock-down of IL36G (interleukin 36 gamma), the screen gave viability hit class no change; caspase hit class no change; viability robust z-score 1.46; caspase robust z-score 2.8. Against TNFRSF10A (TNF receptor superfamily member 10a) the deposit lists viability hit class no change; caspase hit class no change; viability robust z-score 0.02; caspase robust z-score -0.84. With knock-down of CYP21A2 (cytochrome P450 family 21 subfamily A member 2), the record shows viability hit class no change; caspase hit class no change; viability robust z-score 0.2; caspase robust z-score -0.34. TMEM80 (transmembrane protein 80) showed viability hit class no change; caspase hit class no change; viability robust z-score 0.21; caspase robust z-score -0.88.

NIPSNAP3A (nipsnap homolog 3A) gave viability hit class no change; caspase hit class no change; viability robust z-score 1.29; caspase robust z-score -0.36. Depletion of EXOC8 (exocyst complex component 8) gave: viability hit class no change; caspase hit class no change; viability robust z-score -0.18; caspase robust z-score 3.58. Depletion of TGM4 (transglutaminase 4) came out at: viability hit class no change; caspase hit class no change; viability robust z-score -0.94; caspase robust z-score 0.34. MINPP1 (multiple inositol-polyphosphate phosphatase 1) showed viability hit class no change; caspase hit class no change; viability robust z-score -0.8; caspase robust z-score -0.18. NETO2 (neuropilin and tolloid like 2) scored viability hit class no change; caspase hit class no change; viability robust z-score 0.34; caspase robust z-score -0.64. ATP13A5 (ATPase 13A5) showed viability hit class no change; caspase hit class no change; viability robust z-score -1.81; caspase robust z-score -0.64.

After knock-down of H2AZ1 (H2A.Z variant histone 1), the screen gave viability hit class no change; caspase hit class no change; viability robust z-score 0.1; caspase robust z-score 2.02. Against TMEM169 (transmembrane protein 169), the entry reads viability hit class no change; caspase hit class no change; viability robust z-score -0.19; caspase robust z-score 1.54. HLA-DPA1 (major histocompatibility complex, class II, DP alpha 1) showed viability hit class no change; caspase hit class no change; viability robust z-score 0.93; caspase robust z-score -0.6. With knock-down of LHCGR (luteinizing hormone/choriogonadotropin receptor), the record shows viability hit class no change; caspase hit class no change; viability robust z-score 0.08; caspase robust z-score 1.72. For RAPGEF6 (Rap guanine nucleotide exchange factor 6) the deposit lists viability hit class no change; caspase hit class no change; viability robust z-score -1.76; caspase robust z-score 3.11. PIANP (PILR alpha associated neural protein) gave viability hit class no change; caspase hit class no change; viability robust z-score 0; caspase robust z-score 0.98.

PLPP5 (phospholipid phosphatase 5) scored viability hit class no change; caspase hit class no change; viability robust z-score -0.1; caspase robust z-score -0.26. After knock-down of DCP2 (decapping mRNA 2), the record shows viability hit class no change; caspase hit class no change; viability robust z-score 0.62; caspase robust z-score 2.6. Silencing of RGS22 (regulator of G protein signaling 22) came out at: viability hit class no change; caspase hit class no change; viability robust z-score 0.18; caspase robust z-score 0.32.

Reformatted: results already given.
gene | viability hit class | caspase hit class | viability robust z-score | caspase robust z-score
TSPAN18 (tetraspanin 18) | no change | no change | 0.08 | 0.8
IL36G (interleukin 36 gamma) | no change | no change | 1.46 | 2.8
